Test results from the supplement of paper PMC10849652.
The list shows a part of the results.

Chains of the proteins cited; added tags and fusions are not shown. Lines headed by an entry give the natural chain unless they say otherwise; changes in a name come on top.
UniProt Q96K31: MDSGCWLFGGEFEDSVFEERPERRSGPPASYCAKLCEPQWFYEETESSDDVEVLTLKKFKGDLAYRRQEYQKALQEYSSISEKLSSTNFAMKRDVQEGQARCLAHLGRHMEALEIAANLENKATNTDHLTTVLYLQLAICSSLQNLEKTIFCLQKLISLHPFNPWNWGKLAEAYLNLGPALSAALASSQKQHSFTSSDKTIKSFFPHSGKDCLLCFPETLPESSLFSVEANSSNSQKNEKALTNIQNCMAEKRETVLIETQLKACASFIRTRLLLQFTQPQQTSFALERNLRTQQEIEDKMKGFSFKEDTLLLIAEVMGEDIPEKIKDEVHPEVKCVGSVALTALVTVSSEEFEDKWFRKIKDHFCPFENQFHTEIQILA
UniProt Q96B23: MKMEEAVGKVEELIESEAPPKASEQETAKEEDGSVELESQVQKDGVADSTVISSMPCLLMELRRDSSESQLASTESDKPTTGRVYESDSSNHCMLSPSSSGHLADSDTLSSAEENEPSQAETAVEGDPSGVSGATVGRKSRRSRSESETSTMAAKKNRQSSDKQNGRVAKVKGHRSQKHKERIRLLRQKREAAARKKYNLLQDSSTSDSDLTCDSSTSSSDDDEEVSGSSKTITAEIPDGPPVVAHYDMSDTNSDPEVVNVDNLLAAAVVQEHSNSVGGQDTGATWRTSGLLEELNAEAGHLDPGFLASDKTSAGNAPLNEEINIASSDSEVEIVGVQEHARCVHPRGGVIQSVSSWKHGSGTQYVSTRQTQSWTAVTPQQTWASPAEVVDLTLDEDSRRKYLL
UniProt Q9GZU0: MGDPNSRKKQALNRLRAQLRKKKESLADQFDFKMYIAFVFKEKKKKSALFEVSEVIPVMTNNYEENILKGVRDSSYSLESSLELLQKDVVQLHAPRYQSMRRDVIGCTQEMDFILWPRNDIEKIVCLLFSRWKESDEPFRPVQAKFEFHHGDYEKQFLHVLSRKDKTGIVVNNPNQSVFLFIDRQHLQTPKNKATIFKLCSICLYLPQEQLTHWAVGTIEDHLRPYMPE
UniProt Q9BX69: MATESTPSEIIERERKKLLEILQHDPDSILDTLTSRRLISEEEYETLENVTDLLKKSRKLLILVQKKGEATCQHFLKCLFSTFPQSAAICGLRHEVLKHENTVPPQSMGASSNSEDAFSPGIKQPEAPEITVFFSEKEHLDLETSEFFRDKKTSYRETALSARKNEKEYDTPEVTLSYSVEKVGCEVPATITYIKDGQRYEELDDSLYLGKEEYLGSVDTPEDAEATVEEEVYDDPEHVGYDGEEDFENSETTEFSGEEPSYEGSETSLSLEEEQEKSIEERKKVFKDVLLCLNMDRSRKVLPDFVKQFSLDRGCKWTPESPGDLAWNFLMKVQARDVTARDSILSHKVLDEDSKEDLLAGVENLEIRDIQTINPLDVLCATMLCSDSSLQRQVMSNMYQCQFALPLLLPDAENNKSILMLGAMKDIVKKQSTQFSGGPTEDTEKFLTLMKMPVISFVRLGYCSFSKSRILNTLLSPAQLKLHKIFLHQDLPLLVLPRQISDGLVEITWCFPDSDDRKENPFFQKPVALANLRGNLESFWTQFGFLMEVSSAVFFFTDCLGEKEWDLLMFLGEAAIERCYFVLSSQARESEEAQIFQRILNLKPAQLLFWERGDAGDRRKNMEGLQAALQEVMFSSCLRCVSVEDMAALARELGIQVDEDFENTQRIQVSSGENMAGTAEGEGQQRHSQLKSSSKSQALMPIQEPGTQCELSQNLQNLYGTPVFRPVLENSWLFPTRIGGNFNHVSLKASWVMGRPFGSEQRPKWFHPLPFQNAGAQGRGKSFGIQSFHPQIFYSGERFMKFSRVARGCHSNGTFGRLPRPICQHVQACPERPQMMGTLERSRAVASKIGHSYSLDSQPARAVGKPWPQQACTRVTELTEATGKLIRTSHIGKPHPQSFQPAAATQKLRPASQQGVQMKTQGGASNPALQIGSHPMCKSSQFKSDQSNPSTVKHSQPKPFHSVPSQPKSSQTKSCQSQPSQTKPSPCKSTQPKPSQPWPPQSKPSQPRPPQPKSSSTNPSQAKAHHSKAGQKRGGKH
UniProt P23280: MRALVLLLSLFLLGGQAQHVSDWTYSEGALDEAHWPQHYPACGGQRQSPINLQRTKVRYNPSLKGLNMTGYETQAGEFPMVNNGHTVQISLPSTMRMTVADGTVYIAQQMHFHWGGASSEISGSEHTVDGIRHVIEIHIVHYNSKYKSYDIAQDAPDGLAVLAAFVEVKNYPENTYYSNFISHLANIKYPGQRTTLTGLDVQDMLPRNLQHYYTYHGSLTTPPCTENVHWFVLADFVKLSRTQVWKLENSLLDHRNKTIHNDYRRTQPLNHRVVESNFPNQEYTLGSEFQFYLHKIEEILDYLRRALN
UniProt Q9BUW7: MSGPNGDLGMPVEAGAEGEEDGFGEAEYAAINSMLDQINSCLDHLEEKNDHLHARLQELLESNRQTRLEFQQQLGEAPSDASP
UniProt Q9H6X5: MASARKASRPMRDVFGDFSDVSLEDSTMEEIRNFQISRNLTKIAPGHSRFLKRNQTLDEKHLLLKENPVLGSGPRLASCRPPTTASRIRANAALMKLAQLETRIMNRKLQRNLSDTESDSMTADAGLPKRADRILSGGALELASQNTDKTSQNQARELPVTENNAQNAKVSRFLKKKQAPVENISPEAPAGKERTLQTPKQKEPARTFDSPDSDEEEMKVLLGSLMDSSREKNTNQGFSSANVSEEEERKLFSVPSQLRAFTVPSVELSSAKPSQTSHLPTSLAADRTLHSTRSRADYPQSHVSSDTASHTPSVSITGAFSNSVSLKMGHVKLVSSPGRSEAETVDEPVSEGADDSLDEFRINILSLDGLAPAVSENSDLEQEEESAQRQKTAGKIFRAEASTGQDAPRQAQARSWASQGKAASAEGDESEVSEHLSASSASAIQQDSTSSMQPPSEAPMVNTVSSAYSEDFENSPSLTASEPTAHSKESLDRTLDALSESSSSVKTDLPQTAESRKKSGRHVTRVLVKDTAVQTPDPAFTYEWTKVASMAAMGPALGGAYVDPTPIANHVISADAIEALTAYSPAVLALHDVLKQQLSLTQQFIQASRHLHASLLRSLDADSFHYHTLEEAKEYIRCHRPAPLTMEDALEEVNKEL
UniProt Q9NSK7: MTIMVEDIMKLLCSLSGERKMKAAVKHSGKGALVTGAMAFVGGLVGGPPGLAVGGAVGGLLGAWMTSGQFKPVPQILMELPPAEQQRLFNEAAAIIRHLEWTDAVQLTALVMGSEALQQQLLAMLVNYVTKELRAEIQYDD
UniProt Q13936, whole entry, looked up: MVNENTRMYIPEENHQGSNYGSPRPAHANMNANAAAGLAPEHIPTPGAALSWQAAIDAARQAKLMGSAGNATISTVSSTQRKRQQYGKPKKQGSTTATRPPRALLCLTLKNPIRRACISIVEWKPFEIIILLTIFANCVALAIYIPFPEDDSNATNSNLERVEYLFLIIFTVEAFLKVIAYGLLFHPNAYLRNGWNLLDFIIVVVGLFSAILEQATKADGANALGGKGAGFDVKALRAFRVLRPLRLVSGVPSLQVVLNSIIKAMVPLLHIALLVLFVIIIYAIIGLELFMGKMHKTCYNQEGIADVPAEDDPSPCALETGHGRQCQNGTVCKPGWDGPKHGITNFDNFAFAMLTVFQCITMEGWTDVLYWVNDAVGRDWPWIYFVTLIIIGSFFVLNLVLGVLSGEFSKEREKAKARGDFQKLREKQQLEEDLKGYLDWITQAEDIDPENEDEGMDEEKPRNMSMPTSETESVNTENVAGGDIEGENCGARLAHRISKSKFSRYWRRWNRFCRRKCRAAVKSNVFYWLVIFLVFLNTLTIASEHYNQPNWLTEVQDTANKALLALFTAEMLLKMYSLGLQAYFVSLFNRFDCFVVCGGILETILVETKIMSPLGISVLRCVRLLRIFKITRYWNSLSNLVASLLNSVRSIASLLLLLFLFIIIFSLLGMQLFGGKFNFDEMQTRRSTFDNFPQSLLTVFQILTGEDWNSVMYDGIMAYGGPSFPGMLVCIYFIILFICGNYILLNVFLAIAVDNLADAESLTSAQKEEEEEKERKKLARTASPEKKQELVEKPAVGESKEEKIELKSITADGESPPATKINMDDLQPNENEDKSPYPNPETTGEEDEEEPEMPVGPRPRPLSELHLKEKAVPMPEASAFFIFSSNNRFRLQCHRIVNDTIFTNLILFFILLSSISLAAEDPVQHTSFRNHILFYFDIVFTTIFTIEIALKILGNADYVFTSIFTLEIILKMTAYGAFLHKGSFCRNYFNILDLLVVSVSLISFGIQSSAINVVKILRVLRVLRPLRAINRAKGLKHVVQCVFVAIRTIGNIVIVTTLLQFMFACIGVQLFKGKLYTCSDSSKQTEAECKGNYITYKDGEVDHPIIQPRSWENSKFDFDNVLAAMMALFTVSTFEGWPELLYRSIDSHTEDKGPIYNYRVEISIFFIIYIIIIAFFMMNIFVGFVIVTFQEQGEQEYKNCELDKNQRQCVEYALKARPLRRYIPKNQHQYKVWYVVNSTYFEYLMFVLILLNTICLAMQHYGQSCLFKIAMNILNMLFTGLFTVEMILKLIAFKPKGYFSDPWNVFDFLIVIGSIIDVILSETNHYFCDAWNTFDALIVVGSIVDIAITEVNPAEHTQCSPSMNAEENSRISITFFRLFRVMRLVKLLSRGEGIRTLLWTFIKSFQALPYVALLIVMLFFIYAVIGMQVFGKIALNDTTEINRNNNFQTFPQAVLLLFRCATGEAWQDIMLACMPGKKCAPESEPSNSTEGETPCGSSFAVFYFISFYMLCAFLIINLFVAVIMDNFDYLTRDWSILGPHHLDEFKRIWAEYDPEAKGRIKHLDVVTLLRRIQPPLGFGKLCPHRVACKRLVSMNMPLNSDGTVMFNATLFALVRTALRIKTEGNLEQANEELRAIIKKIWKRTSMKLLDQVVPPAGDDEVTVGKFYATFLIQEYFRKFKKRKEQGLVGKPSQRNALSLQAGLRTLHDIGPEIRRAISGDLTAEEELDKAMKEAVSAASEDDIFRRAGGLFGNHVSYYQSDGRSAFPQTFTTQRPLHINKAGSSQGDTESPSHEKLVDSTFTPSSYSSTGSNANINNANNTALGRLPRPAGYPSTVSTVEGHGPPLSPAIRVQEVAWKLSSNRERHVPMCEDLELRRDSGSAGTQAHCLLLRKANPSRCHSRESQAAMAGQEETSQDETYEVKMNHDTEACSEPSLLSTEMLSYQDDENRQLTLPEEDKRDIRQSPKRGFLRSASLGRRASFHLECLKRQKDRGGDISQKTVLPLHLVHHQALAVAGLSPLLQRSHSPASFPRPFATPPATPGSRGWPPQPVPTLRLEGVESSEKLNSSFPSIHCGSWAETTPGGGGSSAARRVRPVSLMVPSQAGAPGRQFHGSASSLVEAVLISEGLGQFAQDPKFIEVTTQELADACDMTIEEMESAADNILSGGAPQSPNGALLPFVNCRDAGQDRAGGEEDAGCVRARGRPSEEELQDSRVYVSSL
UniProt Q96MH7: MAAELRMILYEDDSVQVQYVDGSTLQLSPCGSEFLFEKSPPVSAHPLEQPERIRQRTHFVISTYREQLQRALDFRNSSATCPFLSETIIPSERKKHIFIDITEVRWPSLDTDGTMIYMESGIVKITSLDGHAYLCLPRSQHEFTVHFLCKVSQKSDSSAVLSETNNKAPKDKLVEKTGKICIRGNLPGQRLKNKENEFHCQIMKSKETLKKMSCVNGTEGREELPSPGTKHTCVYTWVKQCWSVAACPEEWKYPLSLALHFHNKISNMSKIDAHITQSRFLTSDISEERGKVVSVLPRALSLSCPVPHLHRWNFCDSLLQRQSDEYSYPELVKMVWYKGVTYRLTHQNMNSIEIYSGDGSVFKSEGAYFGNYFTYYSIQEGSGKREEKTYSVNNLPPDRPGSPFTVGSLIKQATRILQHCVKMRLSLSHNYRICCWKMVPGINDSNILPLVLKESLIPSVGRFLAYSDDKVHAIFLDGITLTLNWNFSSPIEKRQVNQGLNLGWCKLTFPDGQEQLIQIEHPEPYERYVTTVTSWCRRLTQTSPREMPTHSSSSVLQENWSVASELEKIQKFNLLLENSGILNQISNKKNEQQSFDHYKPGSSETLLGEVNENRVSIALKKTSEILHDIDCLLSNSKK
UniProt Q13137: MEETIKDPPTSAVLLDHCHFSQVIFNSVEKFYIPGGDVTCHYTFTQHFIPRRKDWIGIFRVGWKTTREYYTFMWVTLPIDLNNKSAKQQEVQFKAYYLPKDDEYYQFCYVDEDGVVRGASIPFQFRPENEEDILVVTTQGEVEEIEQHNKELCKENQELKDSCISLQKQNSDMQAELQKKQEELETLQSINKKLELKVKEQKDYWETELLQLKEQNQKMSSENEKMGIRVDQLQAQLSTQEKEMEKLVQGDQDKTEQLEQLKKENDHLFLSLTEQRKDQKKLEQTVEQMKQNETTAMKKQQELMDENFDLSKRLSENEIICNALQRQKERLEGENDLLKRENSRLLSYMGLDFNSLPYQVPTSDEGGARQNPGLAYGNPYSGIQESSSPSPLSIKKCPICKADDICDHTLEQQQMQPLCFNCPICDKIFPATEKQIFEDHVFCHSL

Key:
Assay in all cases: log2 fold change, soluble protein after heating vs DMSO (PISA); higher = thermal stabilisation; K562 lysate, 10 uM; active = over 0.2 and 3.5 SD of the protein, either way, in both replicates (recomputed)
ibrutinib = compound: C=CC(=O)N1CCC[C@@H](n2nc(-c3ccc(Oc4ccccc4)cc3)c3c(N)ncnc32)C1 [ibrutinib]
Summary of the method: (§1)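 Pellets of K562 cells were dounce-homogenised in PBS pH 7.4 with 1 mM MgCl2, and the crude extract was held at 1 mg/mL protein for a 30 min treatment with 10 μM compound. Aliquots were heated for 3 min over 48°C-58°C and pooled before NP-40 was added to 0.5% at 4°C. The supernatant from 21,000xg for 90 min was quantified by TMTpro 16plex LC-MS/MS with channel sums equalised. Values are reported from duplicates as log-two fold change in thermal stability relative to solvent controls.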

ralimetinib = compound: CC(C)(C)Cn1c(N)nc2ccc(-c3[nH]c(C(C)(C)C)nc3-c3ccc(F)cc3)nc21 [ralimetinib]
Summary of the method: as §1

[1] = compound: CC(C)(O)CC(=O)NCCn1ccc2ncnc(Nc3ccc(Oc4cccc(C(F)(F)F)c4)c(Cl)c3)c21
Summary of the method: as §1

[2] = compound: CC(C)C1=C2N=C(C=C(N2N=C1)NCC3=CC=CC=C3)NCCCCCCN
Summary of the method: as §1

[3] = compound: CC1=C(C(CC(=O)N1)C2=CC=C(C=C2)C(F)(F)F)C(=O)NC3=C(C=C4C(=C3)C=NN4)F
Summary of the method: as §1

[4] = compound: CC1=C(C2=C(C=C1)C(=O)C3=CC=CC=C3N2CCCN)C
Summary of the method: as §1

[5] = compound: CC1=C(C=C(C=C1)NC(=O)C2=CC(=CC=C2)C(C)(C)C#N)NC3=CC4=C(C=C3)N=CN(C4=O)C
Summary of the method: as §1

[6] = compound: CC1=C(C=C(C=C1)NC(=O)C2=CC(=CC=C2)N(C)C)NC(=O)C3=CC=C(C=C3)O
Summary of the method: as §1

[7] = compound: CC(=O)c1cnc2ccc(-c3cc(Cl)c(O)c(Cl)c3)nc2c1N[C@H]1CC[C@H](CN(C)C)CC1
Summary of the method: as §1

[8] = compound: CC1=CC=C(C=C1)SC2=C3C=C(SC3=CN=C2)C(=O)N
Summary of the method: as §1

Measured: log2 fold change

BUD13 (UniProt Q9BRD0)
inactive: ibrutinib 0.07 | ralimetinib 0.033 | [1] 0.034 | [2] -0.051 | [3] -0.051 | [4] -0.219 | [5] 0.013 | [6] -0.013

C8orf37 (UniProt Q96NL8)
inactive: ibrutinib 0.214 | [7] -0.037 | ralimetinib -0.004 | [1] 0.031 | [2] -0.038 | [4] -0.006 | [5] 0.089 | [6] 0.031 | [8] -0.089

C8orf76 (UniProt Q96K31)
inactive: ibrutinib -0.02 | [7] -0.025 | ralimetinib -0.018 | [1] -0.065 | [2] -0.004 | [3] 0.043 | [4] -0.005 | [5] -0.01 | [6] 0.001 | [8] -0.03

C22orf39 (UniProt Q6P5X5)
inactive: ibrutinib 0.035 | [7] 0.075 | ralimetinib 0.039 | [1] -0.007 | [3] -0.052 | [4] -0.053 | [6] -0.062 | [8] 0.044

C18orf25 isoform 2 (UniProt Q96B23)
inactive: ibrutinib 0.126 | [7] 0.1 | ralimetinib -0.065 | [1] -0.027 | [2] -0.013 | [3] -0.088 | [4] 0.015 | [6] -0.017 | [8] -0.076

CABLES2 (UniProt Q9BTV7)
inactive: ibrutinib -0.154 | [7] -0.01 | [5] 0.378 | [8] -0.145

CA13 (UniProt Q8N1Q1)
inactive: ibrutinib 0.084 | [7] 0.032 | ralimetinib -0.044 | [1] 0.004 | [2] -0.047 | [3] -0.014 | [4] -0.011 | [5] 0.013 | [6] -0.096 | [8] -0.011

CAPNS1 (UniProt U3KPR7)
inactive: ibrutinib 0.034 | [7] -0.007 | [3] 0.155 | [8] 0.099

C20orf27 isoform 2 (UniProt Q9GZN8)
inactive: ibrutinib 0.106 | [7] 0.039 | ralimetinib -0.066 | [1] -0.037 | [2] 0.036 | [3] 0.041 | [4] -0.007 | [5] 0.015 | [6] 0.073 | [8] 0.003

C7orf25 isoform 2 (UniProt Q9BPX7)
inactive: ibrutinib 0.058 | [7] -0.1 | ralimetinib 0.064 | [1] -0.008 | [2] -0.088 | [4] -0.004 | [5] 0.01 | [6] -0.005 | [8] -0.045

BTN3A3 (UniProt O00478)
inactive: ibrutinib -0.057 | ralimetinib 0.103 | [1] 0.029 | [2] 0.178 | [3] 0.06 | [4] 0.072 | [5] -0.338 | [6] 0.119

C8orf88 (UniProt P0DMB2)
inactive: ibrutinib -0.004 | ralimetinib 0.06 | [1] 0.047 | [2] -0.05 | [4] 0.006 | [5] 0.052 | [6] 0.022

C6orf62 (UniProt Q9GZU0)
inactive: [4] -0.482 | [5] 0

CAD (UniProt H7BZB3)
inactive: [2] -0.073

CAMKMT (UniProt Q7Z624)
inactive: [7] 0.001 | ralimetinib 0.064 | [1] 0.028 | [3] -0.03 | [4] -0.151 | [6] 0.008 | [8] -0.169

C2orf49 isoform 2 (UniProt Q9BVC5)
inactive: ralimetinib -0.04 | [1] -0.114 | [6] 0.139

CALR (UniProt K7EJB9)
inactive: [7] -0.07 | [3] -0.028 | [8] -0.036

CAPN1 (UniProt E9PLX0)
inactive: [7] -0.096 | ralimetinib 0.24 | [1] -0.166 | [3] -0.192 | [5] 0.019 | [6] -0.352 | [8] -0.113

CANX (UniProt D6RHJ3)
inactive: [7] -0.013 | [3] 0.021 | [8] -0.008

C12orf57 (UniProt Q99622)
inactive: [2] 0.078 | [3] -0.063 | [4] 0.062 | [5] 0.047

C1orf226 isoform 2 (UniProt A1L170)
inactive: [7] -0.131 | ralimetinib -0.046 | [1] 0.028 | [6] 0.007 | [8] -0.101

C1orf159 isoform 4 (UniProt Q96HA4)
inactive: [4] -0.01

C14orf119 (UniProt Q9NWQ9)
inactive: [5] -0.009

C17orf80 (UniProt Q9BSJ5)
inactive: [7] -0.063 | [2] 0.109 | [5] -0.065 | [8] -0.003

CAP1 (UniProt Q5T0R8)
inactive: [7] 0.031 | [2] 0 | [8] 0.079

C19orf57 (UniProt Q0VDD7)
inactive: [4] 0

C2orf88 (UniProt Q9BSF0)
inactive: ralimetinib -0.086 | [1] 0.204 | [5] 0.136 | [6] -0.04

CARD19 (UniProt Q96LW7)
inactive: [5] 0.018

C11orf74 (UniProt Q86VG3)
inactive: ralimetinib 0.008 | [1] 0.035 | [2] -0.005 | [4] 0.017 | [5] -0.095 | [6] 0.012

CARD6 (UniProt Q9BX69)
inactive: [3] -0.099 | [4] -0.043 | [5] 0.079

CA6 (UniProt P23280)
inactive: [2] -0.078

C9orf16 (UniProt Q9BUW7)
inactive: ralimetinib 0.018 | [1] -0.094 | [2] 0.05 | [4] 0.037 | [5] -0.011 | [6] 0.11

C1R (UniProt P00736)
inactive: [7] 0.008 | [8] 0.027

C4orf46 (UniProt Q504U0)
inactive: ralimetinib 0.215 | [1] -0.275 | [2] 0.158 | [4] 0.008 | [6] 0.245

C19orf44 (UniProt Q9H6X5)
inactive: ralimetinib -0.108 | [1] -0.24 | [3] -0.006 | [6] 0.199

CAMSAP2 (UniProt Q08AD1)
inactive: ralimetinib -0.093 | [1] 0.162 | [2] 0.024 | [3] 0.273 | [4] 0.044 | [5] -0.04 | [6] 0.186

C12orf60 (UniProt Q5U649)
inactive: ralimetinib 0.066 | [1] 0.056 | [2] -0.329 | [3] -0.131 | [4] 0.021 | [5] 0.032 | [6] -0.062

C19orf12 (UniProt Q9NSK7)
inactive: [7] 0.076 | ralimetinib 0.011 | [1] -0.031 | [3] -0.096 | [4] 0.01 | [5] -0.004 | [6] 0.037 | [8] 0.033

CACNA1C isoform 2 (UniProt Q13936)
inactive: [7] -0.018 | [2] 0.027 | [8] -0.069

CAPNS2 (UniProt Q96L46)
inactive: ralimetinib -0.302 | [1] -0.02 | [6] -0.164

C11orf24 (UniProt Q96F05)
inactive: ralimetinib 0.057 | [1] 0.058 | [5] 0.124 | [6] -0.017

C5orf34 (UniProt Q96MH7)
inactive: [2] 0.063 | [4] -0.043

Copied from the entries so far (10 entries):
C17orf80 (UniProt Q9BSJ5)
inactive: [7] -0.063 | [2] 0.109 | [5] -0.065 | [8] -0.003

CAP1 (UniProt Q5T0R8)
inactive: [7] 0.031 | [2] 0 | [8] 0.079

C19orf57 (UniProt Q0VDD7)
inactive: [4] 0

C2orf88 (UniProt Q9BSF0)
inactive: ralimetinib -0.086 | [1] 0.204 | [5] 0.136 | [6] -0.04

CARD19 (UniProt Q96LW7)
inactive: [5] 0.018

C11orf74 (UniProt Q86VG3)
inactive: ralimetinib 0.008 | [1] 0.035 | [2] -0.005 | [4] 0.017 | [5] -0.095 | [6] 0.012

CARD6 (UniProt Q9BX69)
inactive: [3] -0.099 | [4] -0.043 | [5] 0.079

CA6 (UniProt P23280)
inactive: [2] -0.078

C9orf16 (UniProt Q9BUW7)
inactive: ralimetinib 0.018 | [1] -0.094 | [2] 0.05 | [4] 0.037 | [5] -0.011 | [6] 0.11

C1R (UniProt P00736)
inactive: [7] 0.008 | [8] 0.027

Later entries.

C5orf24 (UniProt Q7Z6I8)
inactive: [5] 0.08

C17orf53 (UniProt Q8N3J3)
inactive: [2] 0.033 | [4] -0.094 | [5] 0.188

CALCOCO2 isoform 5 (UniProt Q13137)
inactive: [3] -0.122
